Measurements: publication PMC9388863, “Congeners-Specific Intestinal Absorption Of Microcystins In An In Vitro 3D Human Intestinal Epithelium: The Role Of Influx/Efflux Transporters” (Frontiers in Toxicology, 2022)

The chains behind the UniProt entries cited, without tags or fusion partners. Where a name states a change or a piece, a line headed by the entry shows the natural chain unless it says otherwise.
UniProt Q92887: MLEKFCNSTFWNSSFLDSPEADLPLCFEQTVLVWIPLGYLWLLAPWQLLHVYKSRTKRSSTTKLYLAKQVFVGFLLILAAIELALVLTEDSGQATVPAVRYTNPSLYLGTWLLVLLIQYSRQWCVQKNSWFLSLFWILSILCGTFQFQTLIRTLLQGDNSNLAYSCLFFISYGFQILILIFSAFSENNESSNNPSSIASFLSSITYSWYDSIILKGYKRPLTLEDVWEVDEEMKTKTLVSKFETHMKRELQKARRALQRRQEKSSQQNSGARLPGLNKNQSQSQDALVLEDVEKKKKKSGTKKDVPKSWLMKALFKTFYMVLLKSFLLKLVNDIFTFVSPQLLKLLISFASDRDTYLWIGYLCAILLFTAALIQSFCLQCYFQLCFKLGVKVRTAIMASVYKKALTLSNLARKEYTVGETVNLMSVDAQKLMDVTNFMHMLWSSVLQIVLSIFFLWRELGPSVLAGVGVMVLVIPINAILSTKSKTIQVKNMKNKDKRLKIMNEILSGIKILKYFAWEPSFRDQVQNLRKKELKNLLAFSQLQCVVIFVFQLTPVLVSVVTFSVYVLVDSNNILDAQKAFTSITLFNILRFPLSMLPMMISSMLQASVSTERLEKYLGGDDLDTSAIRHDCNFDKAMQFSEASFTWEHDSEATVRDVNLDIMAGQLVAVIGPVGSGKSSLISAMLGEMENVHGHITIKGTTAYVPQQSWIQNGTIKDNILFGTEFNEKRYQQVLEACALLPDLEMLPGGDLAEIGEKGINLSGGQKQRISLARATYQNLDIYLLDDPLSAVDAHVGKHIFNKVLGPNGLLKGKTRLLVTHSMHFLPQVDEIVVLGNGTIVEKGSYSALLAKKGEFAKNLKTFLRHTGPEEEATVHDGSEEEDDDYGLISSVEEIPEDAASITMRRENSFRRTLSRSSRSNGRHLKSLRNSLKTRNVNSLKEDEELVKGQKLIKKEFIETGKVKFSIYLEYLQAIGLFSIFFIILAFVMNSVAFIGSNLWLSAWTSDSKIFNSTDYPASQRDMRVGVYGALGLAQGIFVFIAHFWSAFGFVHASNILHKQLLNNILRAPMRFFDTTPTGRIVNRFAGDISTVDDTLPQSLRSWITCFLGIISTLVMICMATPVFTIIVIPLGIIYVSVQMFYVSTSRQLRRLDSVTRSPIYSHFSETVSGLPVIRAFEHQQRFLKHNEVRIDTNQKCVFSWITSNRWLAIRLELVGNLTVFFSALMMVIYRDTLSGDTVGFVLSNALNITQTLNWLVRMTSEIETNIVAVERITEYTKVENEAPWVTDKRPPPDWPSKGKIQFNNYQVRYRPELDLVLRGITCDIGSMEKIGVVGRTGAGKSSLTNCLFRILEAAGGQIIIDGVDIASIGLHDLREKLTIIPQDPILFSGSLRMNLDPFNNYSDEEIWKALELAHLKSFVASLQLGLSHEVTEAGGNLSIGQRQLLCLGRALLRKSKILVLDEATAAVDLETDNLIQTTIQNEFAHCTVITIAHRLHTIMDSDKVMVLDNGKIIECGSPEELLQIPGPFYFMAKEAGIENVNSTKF
UniProt O94956: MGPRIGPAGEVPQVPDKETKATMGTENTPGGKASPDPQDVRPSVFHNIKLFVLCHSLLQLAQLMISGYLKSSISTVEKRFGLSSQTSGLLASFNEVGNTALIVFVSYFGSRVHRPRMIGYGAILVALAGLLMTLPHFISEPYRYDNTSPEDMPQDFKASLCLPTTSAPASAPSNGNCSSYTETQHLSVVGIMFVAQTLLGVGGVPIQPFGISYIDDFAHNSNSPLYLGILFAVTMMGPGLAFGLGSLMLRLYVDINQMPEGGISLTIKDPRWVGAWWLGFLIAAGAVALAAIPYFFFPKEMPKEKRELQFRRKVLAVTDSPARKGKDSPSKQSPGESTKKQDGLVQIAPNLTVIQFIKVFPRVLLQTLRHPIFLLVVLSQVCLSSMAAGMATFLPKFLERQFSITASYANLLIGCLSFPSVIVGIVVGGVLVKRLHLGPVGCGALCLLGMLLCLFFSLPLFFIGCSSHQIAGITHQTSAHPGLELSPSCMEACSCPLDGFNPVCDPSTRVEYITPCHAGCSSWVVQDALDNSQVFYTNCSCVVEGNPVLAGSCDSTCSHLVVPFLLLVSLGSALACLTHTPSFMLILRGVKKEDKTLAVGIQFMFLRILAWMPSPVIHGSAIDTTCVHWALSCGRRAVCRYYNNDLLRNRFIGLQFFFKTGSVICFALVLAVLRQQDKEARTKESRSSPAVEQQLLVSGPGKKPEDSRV

Key:
[1] = biological target: MRP2 (Homo sapiens, UniProt Q92887)
[2] = biological target: OATP 2B1 (Homo sapiens, UniProt O94956)

SMILES: CC(C)c1c(C(=O)Nc2ccccc2)c(-c2ccccc2)c(-c2ccc(F)cc2)n1CC[C@@H](O)C[C@@H](O)CC(=O)O [Atorvastatin, reference compound]
- effect of benzbromarone on probe substrate recovered at the BL compartment [1]: increase in the amount of substrates recovered at the BL compartment
- effect of cyclosporin on probe substrate absorption [2]: increase in the absorption
